Results are given in words; binding and its absence hold for the method and conditions named. For some assays here: Binding seen in cells or lysates may run through a third protein. Some results given as binding are weak or reduced against the parent protein; the word gives no strength. For some assays here: Sequences can lack the tags named with a protein.
Assays:
[1] = target: mouse CAD as yeast 2-hybrid bait (in the same manner as Example 1-1) (mouse) (UniProt P0A7C2+O54788); assay: yeast 2-hybrid screen, mouse CAD as bait, adult mouse brain cDNA library
[2] = target: full-length ASK1 fused to the LexA DNA binding domain of pLexA (yeast 2-hybrid bait) (UniProt P0A7C2); assay: yeast 2-hybrid screen, full-length ASK1 as bait, mouse brain cDNA library
[3] = target: T1, GST-CIA-WT (GST-tagged full-length wild type mouse CIA) (mouse) (UniProt Q9D1C8); assay: pull-down binding assay of CAD and its deletion mutants with CIA, SDS-PAGE
T1 sequence: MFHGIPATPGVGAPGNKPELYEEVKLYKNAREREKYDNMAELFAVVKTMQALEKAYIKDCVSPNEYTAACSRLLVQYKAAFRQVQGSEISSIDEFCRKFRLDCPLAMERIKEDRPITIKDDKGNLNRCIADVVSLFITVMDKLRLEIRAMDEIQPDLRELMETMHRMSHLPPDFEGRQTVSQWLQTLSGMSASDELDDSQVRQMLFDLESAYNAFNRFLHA

Sequences of proteins named here, by UniProt entry; tags and fusion partners are left off. A change or cut given only in a name is not applied to a line headed by its entry.
UniProt P0A7C2: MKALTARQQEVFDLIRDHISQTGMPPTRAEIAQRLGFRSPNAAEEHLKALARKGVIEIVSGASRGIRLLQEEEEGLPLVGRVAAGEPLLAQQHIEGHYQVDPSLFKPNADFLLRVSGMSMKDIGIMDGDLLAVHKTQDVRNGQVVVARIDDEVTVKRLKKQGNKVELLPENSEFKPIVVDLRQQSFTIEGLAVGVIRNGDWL

[4] = target: ASK1 wild-type, full length (apoptosis signal-regulating kinase 1), in vitro translated and 35S-methionine-labelled (UniProt Q99683); assay: GST pull-down on glutathione-agarose beads, SDS-PAGE
[5] = target: T2, wild type CAD (CAD-WT) (1-345), caspase-activated deoxyribonuclease, 35S-labelled (mouse) (UniProt O54788); assay: as above
T2 sequence (35S label, looked up): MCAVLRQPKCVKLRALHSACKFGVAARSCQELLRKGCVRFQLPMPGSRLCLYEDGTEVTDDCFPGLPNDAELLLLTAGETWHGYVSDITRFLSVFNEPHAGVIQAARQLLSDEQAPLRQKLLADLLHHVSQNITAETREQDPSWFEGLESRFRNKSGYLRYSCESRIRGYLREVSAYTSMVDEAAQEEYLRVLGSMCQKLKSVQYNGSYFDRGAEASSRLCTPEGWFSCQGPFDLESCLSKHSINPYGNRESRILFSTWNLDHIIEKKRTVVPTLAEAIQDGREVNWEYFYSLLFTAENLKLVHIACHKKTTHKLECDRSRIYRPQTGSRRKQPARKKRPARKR

[6] = target: T3, ASK1-NT (ASK1 from amino acid 1 to 656) (UniProt Q99683); assay: GST-CIA pull-down of 35S-labelled ASK1 mutants, SDS-PAGE
T3 sequence (35S-methionine label, looked up): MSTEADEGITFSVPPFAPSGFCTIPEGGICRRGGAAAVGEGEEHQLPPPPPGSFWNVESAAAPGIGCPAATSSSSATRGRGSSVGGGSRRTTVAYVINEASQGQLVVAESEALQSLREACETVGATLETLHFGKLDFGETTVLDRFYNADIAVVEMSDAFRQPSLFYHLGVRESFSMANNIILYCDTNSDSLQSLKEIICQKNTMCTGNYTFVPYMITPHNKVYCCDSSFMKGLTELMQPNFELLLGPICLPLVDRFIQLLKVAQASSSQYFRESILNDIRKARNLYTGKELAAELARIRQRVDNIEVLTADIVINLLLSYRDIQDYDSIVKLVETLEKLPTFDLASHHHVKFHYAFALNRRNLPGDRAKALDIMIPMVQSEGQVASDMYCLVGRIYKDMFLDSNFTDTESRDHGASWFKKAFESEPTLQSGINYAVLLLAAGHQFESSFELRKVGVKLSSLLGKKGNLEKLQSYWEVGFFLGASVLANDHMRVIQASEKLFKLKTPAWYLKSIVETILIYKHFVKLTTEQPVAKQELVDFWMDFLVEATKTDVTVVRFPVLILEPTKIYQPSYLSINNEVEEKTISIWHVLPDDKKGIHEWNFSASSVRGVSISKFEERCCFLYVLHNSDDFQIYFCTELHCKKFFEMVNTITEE

[7] = target: ASK1-Flag (expressed from pcDNA3-ASK1-Flag in 293 cells, immunoprecipitated with anti-Flag) (UniProt Q99683); assay: immunoprecipitation using anti-Flag antibody (figure legend)

B1: mouse CIA cDNA clone from the mouse brain cDNA library in the pB42AD prey plasmid (yeast 2-hybrid) (protein, not shown: large carriers)
chain: MFHGIPATPGVGAPGNKPELYEEVKLYKNAREREKYDNMAELFAVVKTMQALEKAYIKDCVSPNEYTAACSRLLVQYKAAFRQVQGSEISSIDEFCRKFRLDCPLAMERIKEDRPITIKDDKGNLNRCIADVVSLFITVMDKLRLEIRAMDEIQPDLRELMETMHRMSHLPPDFEGRQTVSQWLQTLSGMSASDELDDSQVRQMLFDLESAYNAFNRFLHA
binding [1]: binds
binding [2]: binds

B2: wild type CAD (CAD-WT) (1-345), caspase-activated deoxyribonuclease, 35S-labelled (enzyme, mouse, UniProt O54788 1-344, looked up)
chain: MCAVLRQPKCVKLRALHSACKFGVAARSCQELLRKGCVRFQLPMPGSRLCLYEDGTEVTDDCFPGLPNDAELLLLTAGETWHGYVSDITRFLSVFNEPHAGVIQAARQLLSDEQAPLRQKLLADLLHHVSQNITAETREQDPSWFEGLESRFRNKSGYLRYSCESRIRGYLREVSAYTSMVDEAAQEEYLRVLGSMCQKLKSVQYNGSYFDRGAEASSRLCTPEGWFSCQGPFDLESCLSKHSINPYGNRESRILFSTWNLDHIIEKKRTVVPTLAEAIQDGREVNWEYFYSLLFTAENLKLVHIACHKKTTHKLECDRSRIYRPQTGSRRKQPARKKRPARKR
modifications: 35S label
binding [3]: binds

B3: GST-CIA-WT (GST-tagged full-length wild type mouse CIA) (protein, not shown: a dimerising Fc or GST)
chain: MFHGIPATPGVGAPGNKPELYEEVKLYKNAREREKYDNMAELFAVVKTMQALEKAYIKDCVSPNEYTAACSRLLVQYKAAFRQVQGSEISSIDEFCRKFRLDCPLAMERIKEDRPITIKDDKGNLNRCIADVVSLFITVMDKLRLEIRAMDEIQPDLRELMETMHRMSHLPPDFEGRQTVSQWLQTLSGMSASDELDDSQVRQMLFDLESAYNAFNRFLHA
binding [4]: binds
binding [5]: binds
binding [6]: binds

B4: GST-CIA-ΔN (CIA deficient in N-terminal amino acids 1 to 78) (protein, not shown: a dimerising Fc or GST; large carriers; small tags and cut ends)
chain: AAFRQVQGSEISSIDEFCRKFRLDCPLAMERIKEDRPITIKDDKGNLNRCIADVVSLFITVMDKLRLEIRAMDEIQPDLRELMETMHRMSHLPPDFEGRQTVSQWLQTLSGMSASDELDDSQVRQMLFDLESAYNAFNRFLHA
binding [4]: binds

B5: His-CIA recombinant protein (His6-tagged mouse CIA) (protein, not shown: small tags and cut ends)
chain: MFHGIPATPGVGAPGNKPELYEEVKLYKNAREREKYDNMAELFAVVKTMQALEKAYIKDCVSPNEYTAACSRLLVQYKAAFRQVQGSEISSIDEFCRKFRLDCPLAMERIKEDRPITIKDDKGNLNRCIADVVSLFITVMDKLRLEIRAMDEIQPDLRELMETMHRMSHLPPDFEGRQTVSQWLQTLSGMSASDELDDSQVRQMLFDLESAYNAFNRFLHA
binding [7]: binds
